No constants are given. Whether binding was seen depends on the method and setting. Some binding calls cover weakened binding; strength is not graded here. One block for each binder: values may come before it.
Biological target: T1, LGR7 (leucine-rich repeat-containing GPCR 7) (human) (UniProt Q9HBX9)
T1 sequence (looked up): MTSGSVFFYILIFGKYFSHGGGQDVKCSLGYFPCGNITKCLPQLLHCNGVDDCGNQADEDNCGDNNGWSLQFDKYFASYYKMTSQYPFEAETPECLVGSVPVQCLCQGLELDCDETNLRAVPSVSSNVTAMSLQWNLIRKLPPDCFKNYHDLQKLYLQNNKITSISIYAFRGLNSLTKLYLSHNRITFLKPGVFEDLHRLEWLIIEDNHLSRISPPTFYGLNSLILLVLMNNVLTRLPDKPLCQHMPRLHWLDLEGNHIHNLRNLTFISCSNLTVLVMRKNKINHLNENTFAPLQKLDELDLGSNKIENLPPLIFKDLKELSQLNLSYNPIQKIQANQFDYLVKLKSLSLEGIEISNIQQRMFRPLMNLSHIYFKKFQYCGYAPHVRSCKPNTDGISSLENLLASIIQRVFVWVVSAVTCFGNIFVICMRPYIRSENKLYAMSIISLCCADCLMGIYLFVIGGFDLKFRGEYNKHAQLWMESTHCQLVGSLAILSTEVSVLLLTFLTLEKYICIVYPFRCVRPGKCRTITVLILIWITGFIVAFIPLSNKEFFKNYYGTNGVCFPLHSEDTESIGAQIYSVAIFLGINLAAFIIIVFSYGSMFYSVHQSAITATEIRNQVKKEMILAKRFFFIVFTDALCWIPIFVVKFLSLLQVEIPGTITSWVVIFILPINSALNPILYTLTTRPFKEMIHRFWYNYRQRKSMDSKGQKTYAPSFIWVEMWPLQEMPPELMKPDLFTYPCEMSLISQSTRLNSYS
Experiment: competition with 125I-RLN2 tracer on LGR7-expressing HEK293T cells

binding: binds
B1: RLN2^A19-20 (ligand, not shown: small tags and cut ends)
chain 1: SWMEEVIKLCGRELVRAQIAICGMSTWSHHHHHH
chain 2: QLYSALANKCCHVGCTKRAAARFC
notes: It is read here as both residues changed to alanine

binding: binds
B2: RLN2^A22-23 (ligand, not shown: small tags and cut ends)
chain 1: B1 chain 1
chain 2: QLYSALANKCCHVGCTKRSLAAAC
notes: as for B1

— patent publication US20130244938A1 (Stanford University, published 2013)
